According to article PMC9463452:
No constants are given. Whether binding was seen depends on the method and setting. In cells and extracts the contact can be indirect. Some binding calls cover weakened binding; strength is not graded here. For part of these data: Where a sequence is shown, tags or fusion partners need not be part of it.

T1: OTUD5, endogenous (human (endogenous in 253J and UM-UC-14)) (UniProt Q96G74)
T1 sequence: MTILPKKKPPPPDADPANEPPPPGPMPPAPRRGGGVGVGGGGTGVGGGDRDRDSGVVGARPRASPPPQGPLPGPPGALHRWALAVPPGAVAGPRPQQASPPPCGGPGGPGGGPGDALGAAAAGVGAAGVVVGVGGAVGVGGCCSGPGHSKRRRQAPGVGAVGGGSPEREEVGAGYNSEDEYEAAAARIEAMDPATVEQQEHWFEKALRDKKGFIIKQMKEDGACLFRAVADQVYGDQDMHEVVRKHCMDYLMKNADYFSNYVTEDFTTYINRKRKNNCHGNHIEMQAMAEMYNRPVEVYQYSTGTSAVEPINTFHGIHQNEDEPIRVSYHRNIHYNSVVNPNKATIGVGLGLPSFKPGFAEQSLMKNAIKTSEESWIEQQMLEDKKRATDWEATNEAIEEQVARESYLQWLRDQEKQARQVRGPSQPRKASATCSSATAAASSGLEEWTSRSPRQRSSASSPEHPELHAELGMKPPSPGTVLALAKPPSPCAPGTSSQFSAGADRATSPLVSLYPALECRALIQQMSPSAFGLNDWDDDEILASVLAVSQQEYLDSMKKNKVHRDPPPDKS

T2: GST-OTUD5 (UniProt Q96G74)
T2 sequence: T1 sequence

B1: RNF186, endogenous (enzyme, UniProt Q9NXI6 1-227)
chain: MACTKTLQQSQPISAGATTTTTAVAPAGGHSGSTECDLECLVCREPYSCPRLPKLLACQHAFCAICLKLLLCVQDNTWSITCPLCRKVTAVPGGLICSLRDHEAVVGQLAQPCTEVSLCPQGLVDPADLAAGHPSLVGEDGQDEVSANHVAARRLAAHLLLLALLIILIGPFIYPGVLRWVLTFIIALALLMSTLFCCLPSTRGSCWPSSRTLFCREQKHSHISSIA
B2: HA-RNF186 (ring finger protein 186) (enzyme, UniProt Q9NXI6 1-227)
chain: B1 chain
B3: HA-sestrin2 (protein, UniProt P58004 1-480)
chain: MIVADSECRAELKDYLRFAPGGVGDSGPGEEQRESRARRGPRGPSAFIPVEEVLREGAESLEQHLGLEALMSSGRVDNLAVVMGLHPDYFTSFWRLHYLLLHTDGPLASSWRHYIAIMAAARHQCSYLVGSHMAEFLQTGGDPEWLLGLHRAPEKLRKLSEINKLLAHRPWLITKEHIQALLKTGEHTWSLAELIQALVLLTHCHSLSSFVFGCGILPEGDADGSPAPQAPTPPSEQSSPPSRDPLNNSGGFESARDVEALMERMQQLQESLLRDEGTSQEEMESRFELEKSESLLVTPSADILEPSPHPDMLCFVEDPTFGYEDFTRRGAQAPPTFRAQDYTWEDHGYSLIQRLYPEGGQLLDEKFQAAYSLTYNTIAMHSGVDTSVLRRAIWNYIHCVFGIRYDDYDYGEVNQLLERNLKVYIKTVACYPEKTTRRMYNLFWRHFRHSEKVHVNLLLLEARMQAALLYALRAITRYMT

How the values were obtained:
[1] = target: T1, OTUD5, endogenous (human (endogenous in 253J and UM-UC-14)); assay: co-IP; endogenous proteins in 253J and UM-UC-14 cells; IP with the antibody against OTUD5, Western blot with the antibody against RNF186
[2] = target: T2, GST-OTUD5; assay: pull-down; GST pull-down with GST-OTUD5; bound HA-tagged protein detected by immunoblot with anti-HA; Coomassie blue staining of the purified proteins; only the target purified

| Binder | binding [1] | binding [2] |
| --- | --- | --- |
| B1 | binds | – |
| B2 | – | binds |
| B3 | – | no binding |
